6 sequences from PMC10294715 can be followed below.

The chains behind the UniProt entries cited, without tags or fusion partners.
UniProt D3Z6P9, entry or part of it: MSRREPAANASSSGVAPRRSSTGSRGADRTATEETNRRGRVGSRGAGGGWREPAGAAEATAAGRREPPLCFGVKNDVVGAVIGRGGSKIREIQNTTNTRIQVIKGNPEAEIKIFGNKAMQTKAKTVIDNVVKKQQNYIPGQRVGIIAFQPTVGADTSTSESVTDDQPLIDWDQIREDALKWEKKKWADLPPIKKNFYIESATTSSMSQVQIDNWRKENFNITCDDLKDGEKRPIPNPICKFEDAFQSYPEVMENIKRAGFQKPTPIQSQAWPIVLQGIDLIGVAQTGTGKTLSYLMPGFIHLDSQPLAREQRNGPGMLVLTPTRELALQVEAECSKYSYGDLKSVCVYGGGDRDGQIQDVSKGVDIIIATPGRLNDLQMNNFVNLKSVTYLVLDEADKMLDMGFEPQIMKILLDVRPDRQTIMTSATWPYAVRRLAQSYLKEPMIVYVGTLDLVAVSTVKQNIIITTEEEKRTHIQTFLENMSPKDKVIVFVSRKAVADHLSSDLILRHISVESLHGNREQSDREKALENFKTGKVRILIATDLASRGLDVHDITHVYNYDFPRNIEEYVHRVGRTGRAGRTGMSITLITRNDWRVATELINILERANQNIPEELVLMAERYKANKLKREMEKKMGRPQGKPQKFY

Construct, isoform or probe ends are uncertain for at least one entry. At least one verdict was read from the data and is not stated in words by the source.

This series deals with DDX43 (Mus musculus) (UniProt D3Z6P9). Kind of series: EMSA. The following applies: EMSA: 10 nM biotin-RNA, 50 mM Tris-HCl pH 7.5, 100 mM KCl, 2.5% glycerol, 0.05% NP-40, 4 mM EDTA, 1 mM DTT, RiboLock 2 U, 37 C 30 min; 8% native TBE PAGE at …; recombinant protein; protein details: His tag (Ni-NTA, pET28a); label: 3' biotin. On the technique in general: In EMSA bound probe runs differently from free probe, usually more slowly.

On to “CGGCGGAGGGGCGGGAGGGU [Elfn2 RG4 only sequence1]”, for which the binding result is “binds”.
Consider “CGGCGGAGGGGCGGGAGGGUCUGCAGCGGAGAGAGG [Elfn2 3' tailed RG4 sequence1]”, for which the binding result is listed as “binds”.
With “CGGCGGGAGGCGGGGGUGGC [Elfn2 RG4 only sequence2]” the entry was “binds”.
For “CGGCGGGAGGCGGGGGUGGCAGUGUCUGCGCGCACA [Elfn2 3' tailed RG4 sequence2]”, the binding result was “binds”.
With GGGGAGGGUCCGGGUGGGA [RG4 only sequence] the entry was “binds”; with “GGGGAGGGUCCGGGUGGGACCGGUGGUGUUUUUU [3' tailed RG4 sequence]”, “binds”.
